# Results: paper PMC12948423
# Chains of the proteins cited; added tags and fusions are not shown. Lines headed by an entry give the natural chain unless they say otherwise; changes in a name come on top. Residues count along the entry.
# UniProt P08758: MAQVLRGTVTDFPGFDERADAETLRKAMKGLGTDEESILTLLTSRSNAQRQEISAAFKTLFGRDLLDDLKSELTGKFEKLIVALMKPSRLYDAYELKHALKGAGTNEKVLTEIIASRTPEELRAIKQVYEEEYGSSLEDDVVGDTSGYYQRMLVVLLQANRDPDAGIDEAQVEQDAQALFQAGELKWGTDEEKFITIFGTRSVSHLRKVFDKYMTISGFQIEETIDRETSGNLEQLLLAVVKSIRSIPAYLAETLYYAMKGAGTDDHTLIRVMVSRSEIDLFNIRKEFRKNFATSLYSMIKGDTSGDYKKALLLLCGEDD
# UniProt P05556: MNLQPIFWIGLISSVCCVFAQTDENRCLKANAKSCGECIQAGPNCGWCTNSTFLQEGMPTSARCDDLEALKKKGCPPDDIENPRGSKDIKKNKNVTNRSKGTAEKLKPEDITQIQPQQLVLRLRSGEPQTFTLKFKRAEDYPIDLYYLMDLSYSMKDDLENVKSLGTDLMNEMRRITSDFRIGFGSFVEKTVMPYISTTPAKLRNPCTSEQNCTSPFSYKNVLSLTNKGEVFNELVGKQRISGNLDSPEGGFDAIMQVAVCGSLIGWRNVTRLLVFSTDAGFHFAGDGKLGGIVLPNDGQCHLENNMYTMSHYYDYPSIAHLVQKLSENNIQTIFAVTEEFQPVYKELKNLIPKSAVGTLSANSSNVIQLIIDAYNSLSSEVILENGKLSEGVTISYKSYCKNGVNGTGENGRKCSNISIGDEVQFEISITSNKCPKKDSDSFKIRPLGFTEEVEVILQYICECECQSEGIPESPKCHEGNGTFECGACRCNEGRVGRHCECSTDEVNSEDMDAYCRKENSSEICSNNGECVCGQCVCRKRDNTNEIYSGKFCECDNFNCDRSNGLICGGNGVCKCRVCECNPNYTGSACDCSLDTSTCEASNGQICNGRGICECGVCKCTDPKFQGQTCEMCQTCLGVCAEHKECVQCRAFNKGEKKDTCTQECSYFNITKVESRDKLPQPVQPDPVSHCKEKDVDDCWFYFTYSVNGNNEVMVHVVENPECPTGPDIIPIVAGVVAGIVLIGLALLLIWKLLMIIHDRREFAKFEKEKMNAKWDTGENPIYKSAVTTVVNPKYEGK
# UniProt P14625, residues 22-803: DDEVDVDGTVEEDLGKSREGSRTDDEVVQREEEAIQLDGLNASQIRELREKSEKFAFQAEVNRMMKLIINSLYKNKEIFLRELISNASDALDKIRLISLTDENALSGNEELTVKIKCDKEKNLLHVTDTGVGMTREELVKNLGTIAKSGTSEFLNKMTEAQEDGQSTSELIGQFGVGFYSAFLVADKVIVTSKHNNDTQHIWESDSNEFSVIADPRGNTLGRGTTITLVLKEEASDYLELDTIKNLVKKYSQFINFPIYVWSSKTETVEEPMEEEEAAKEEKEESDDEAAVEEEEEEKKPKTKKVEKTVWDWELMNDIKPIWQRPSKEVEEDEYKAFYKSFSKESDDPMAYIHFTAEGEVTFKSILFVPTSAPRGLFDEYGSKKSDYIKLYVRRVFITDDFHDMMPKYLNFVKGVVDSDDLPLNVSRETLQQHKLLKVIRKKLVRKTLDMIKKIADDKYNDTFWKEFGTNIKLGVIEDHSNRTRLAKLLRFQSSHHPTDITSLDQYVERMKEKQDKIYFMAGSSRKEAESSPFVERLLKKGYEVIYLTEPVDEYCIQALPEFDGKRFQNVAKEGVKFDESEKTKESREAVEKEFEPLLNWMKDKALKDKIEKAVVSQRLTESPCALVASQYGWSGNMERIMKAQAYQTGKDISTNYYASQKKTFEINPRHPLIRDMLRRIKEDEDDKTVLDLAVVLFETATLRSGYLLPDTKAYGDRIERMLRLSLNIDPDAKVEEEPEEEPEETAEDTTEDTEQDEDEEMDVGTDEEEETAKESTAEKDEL
# UniProt Q03135: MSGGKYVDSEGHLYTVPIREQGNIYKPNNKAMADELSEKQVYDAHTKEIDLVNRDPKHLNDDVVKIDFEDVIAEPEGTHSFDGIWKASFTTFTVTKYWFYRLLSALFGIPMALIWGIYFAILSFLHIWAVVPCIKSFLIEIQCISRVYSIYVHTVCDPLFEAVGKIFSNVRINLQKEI
# T1: canonical FNDC4 protein (fibronectin III domain containing 4), Myc-FLAG-tagged (human) (UniProt Q9H6D8)
# T1 sequence: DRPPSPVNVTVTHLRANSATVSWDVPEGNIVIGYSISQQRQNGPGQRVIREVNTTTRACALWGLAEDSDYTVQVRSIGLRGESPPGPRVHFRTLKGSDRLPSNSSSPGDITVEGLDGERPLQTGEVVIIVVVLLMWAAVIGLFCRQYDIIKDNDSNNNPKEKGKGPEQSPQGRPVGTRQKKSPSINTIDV
# Molecular target: T1, canonical FNDC4 protein (fibronectin III domain containing 4), Myc-FLAG-tagged (human)
# Assay: affinity purification with mass spectrometry; Myc-FLAG-tagged FNDC4 (canonical or truncated) or empty vector overexpressed in iPSC-derived NPCs; anti-MYC magnetic beads; IP samples separated by SDS-PAGE, gel sections cut for MS; proteins also found in the empty vector or truncated FNDC4 samples filtered out
row,Molecule,binding
1,ANXA5 (from UniProt P08758 1-320),binds
2,"GHITM (protein, UniProt Q9H3K2 46-345) ATKTRIGIRRGRTGQELKEAALEPSMEKIFKIDQMGRWFVAGGAAVGLGALCYYGLGLSNEIGAIEKAVIWPQYVKDRIHSTYMYLAGSIGLTALSAIAISRTPVLMNFMMRGSWVTIGVTFAAMVGAGMLVRSIPYDQSPGPKHLAWLLHSGVMGAVVAPLTILGGPLLIRAAWYTAGIVGGLSTVAMCAPSEKFLNMGAPLGVGLGLVFVSSLGSMFLPPTTVAGATLYSVAMYGGLVLFSMFLLYDTQKVIKRAEVSPMYGVQKYDPINSMLSIYMDTLNIFMRVATMLATGGNRKK",binds
3,"REEP3 (protein, UniProt Q6NUK4 1-255) MVSWMISRAVVLVFGMLYPAYYSYKAVKTKNVKEYVRWMMYWIVFALYTVIETVADQTVAWFPLYYELKIAFVIWLLSPYTKGASLIYRKFLHPLLSSKEREIDDYIVQAKERGYETMVNFGRQGLNLAATAAVTAAVKSQGAITERLRSFSMHDLTTIQGDEPVGQRPYQPLPEAKKKSKPAPSESAGYGIPLKDGDEKTDEEAEGPYSDNEMLTHKGLRRSQSMKSVKTTKGRKEVRYGSLKYKVKKRPQVYF",binds

# The remaining lines, values ahead:
row,binding,Molecule
1,binds,integrin subunit β-1 (ITGB1) (from UniProt P05556 21-798)
2,binds,HSP90B1 (from UniProt P14625 22-803)
3,binds,CAV1 (from UniProt Q03135 1-178)

# These are yes or no findings as the source states them, for the method shown. Binding seen in cells or lysates may run through a third protein. These calls come from enrichment with a bait or labelling near it, and not all partners need be listed. Sequences can lack the tags named with a protein.
